Experimental data reported in patent US8568762B2, “Methods for modifying the surface of an implant to provide said surface with calcium” (Biotechnology Institute, I Mas D, S.L., priority 2010, dated 2013).

Experiment: Test 1: amount of calcium carried away per surface unit (rapid immersion, EDTA titration)
Assay type: physicochemical

SMILES: [Ca+2].[Cl-].[Cl-] [CaCl2, calcium chloride]
- surface loading coefficient (linear regression, CaCl2 in ethanol, 5 s immersion, drying 1 h 65° C. vacuum, rough surfaces): 3.4±3 ng·mm^−2·mM^−1
- Average variation coefficient (%) of the amount of calcium carried away per surface unit (solvent ethanol): 13.30%
- Average variation coefficient (%) of the amount of calcium carried away per surface unit (solvent ethanol and drying): 13.15%
- Average variation coefficient (%) of the amount of calcium carried away per surface unit (solvent water): 16.91%
